This assay concerns the target T1, DarB-Strep (B. subtilis) (UniProt O31698).
T1 sequence: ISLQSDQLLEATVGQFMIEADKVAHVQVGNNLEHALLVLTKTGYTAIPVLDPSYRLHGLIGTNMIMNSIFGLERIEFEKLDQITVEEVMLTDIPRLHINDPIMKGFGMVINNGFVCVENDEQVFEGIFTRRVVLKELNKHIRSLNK
Briefly: pull-down; in vivo: B. subtilis GP3429 (Rel-His6) with pGP767 (DarB-Strep) grown in MSSM medium with 0.1 mM potassium; DarB-Strep purified from crude extract on a StrepTactin column; eluates analysed by Western blot (anti-His, anti-Strep) and mass spectrometry. (In general: Immunoblotting shows a protein as a band on a membrane.)

No constants are given. Whether binding was seen depends on the method and setting. In cells and extracts the contact can be indirect.

For the substance “SasB, endogenous (B. subtilis (endogenous in GP3429)) (enzyme)”, the binding entry is on record as “no binding”.

On to “SasA, endogenous (B. subtilis (endogenous in GP3429)) (enzyme)”, for which the binding entry is recorded as “no binding”.

(Values after publication PMC7900238, “A meet-up of two second messengers: the c-di-AMP receptor DarB controls (p)ppGpp synthesis in Bacillus subtilis” (Nature Communications, 2021).)
